PubChem BioAssay AID1439 (NMMLSC, 2008)
Among all 220,000 compounds or so, about 770 (0.35%) were called active. Inconclusive means that the source gave no clear call. Such entries were picked first, then a sample of the others. Rule as the data show it: active = binding response below about 49% or above about 150%; inconclusive = no clear call, values can overlap the other calls; inactive = in between.

Amino acid sequences for entries named in this document (tags omitted).
UniProt P09471, whole entry, looked up: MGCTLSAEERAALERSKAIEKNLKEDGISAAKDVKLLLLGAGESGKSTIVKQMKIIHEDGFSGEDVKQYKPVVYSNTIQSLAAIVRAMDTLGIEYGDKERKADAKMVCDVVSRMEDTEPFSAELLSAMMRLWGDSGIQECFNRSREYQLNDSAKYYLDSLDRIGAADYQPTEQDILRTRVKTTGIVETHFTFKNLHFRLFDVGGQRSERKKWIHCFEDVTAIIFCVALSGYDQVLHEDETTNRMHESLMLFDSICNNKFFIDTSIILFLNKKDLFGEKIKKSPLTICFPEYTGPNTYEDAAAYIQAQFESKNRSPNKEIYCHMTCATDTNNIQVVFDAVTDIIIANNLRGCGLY

What follows are molecules tested against Guanine nucleotide-binding protein G(o) subunit alpha (Homo sapiens) (UniProt P09471) (assay: RGS7-Galphao binding modulators, primary screen, biochemical, multiplexed bead flow cytometry (AID 1439;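 also: fluorescent Galphao held in activated GDP-AlF4 state binding bead-coupled RGS7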)). Settings: at 10 µM, actives lie on both sides.
For O=C(NNS(=O)(=O)c1ccccc1[N+](=O)[O-])c1cccnc1, the binding response (% of control) was inconclusive: 137%.
With CN1C[C@@H]2C(c3ccc(C(F)(F)F)cc3)C3(c4cccnc4)CC2(C3)[C@H]1c1ccccc1 (some centres not stated) the binding response (% of control) was inconclusive: 124%.
For COCCNC(=S)N/N=C(\C)c1ccc(Cl)s1, the binding response (% of control) was inconclusive: 104%.
With CCN(CC)C1=C(Cl)C(=O)C(Cl)C12OCCO2 (configuration not stated) the binding response (% of control) was inconclusive: 103%.
For Cc1cc(C(=O)OCC(=O)Nc2cccc(S(N)(=O)=O)c2)c2ccccc2n1, the binding response (% of control) was inconclusive: 121%.
With CCCCOC(=O)c1cc(=O)[nH]c2ccc(C)cc12 the binding response (% of control) was inconclusive: 104%.
With CCC(=O)N1CCC2(CC1)Oc1ccc(Cl)cc1C(=O)C21CC(c2ccccc2)=NO1 (configuration not stated) the binding response (% of control) was inconclusive: 105%.
In the case of CC(C)C12CN(C(=O)c3ccccc3[N+](=O)[O-])CC(C(C)C)(CN(C(=O)c3ccccc3[N+](=O)[O-])C1)C2=O, the binding response (% of control) is reported as inconclusive: 56.2%.
With CCCOc1ccc(C(=O)CCC(=O)OCC(=O)Nc2ccc(OCC)cc2)cc1 the binding response (% of control) was inconclusive: 108%.
O=C(Nc1nc2c(F)cc(F)cc2s1)C1COc2ccccc2O1 (configuration not stated) was tested, and the binding response (% of control) was inconclusive: 97.7%.
In the case of Cc1cc(NC(=O)c2cc([N+](=O)[O-])cc([N+](=O)[O-])c2)n(-c2ccccc2)n1, the binding response (% of control) is reported as inactive: 102%.
For COc1cc(OC)cc(C(=O)NC(=S)Nc2nnn(C)n2)c1, the binding response (% of control) was inconclusive: 94.4%.
In the case of COc1cccc(NC(=S)N(CCCN2CCN(C)CC2)Cc2ccco2)c1, the binding response (% of control) is reported as inconclusive: 118%.
With CN1CCC(=NNC(=O)COc2ccc(Cl)cc2)CC1 the binding response (% of control) was inconclusive: 105%.
For Nc1c(C(=O)O)sc2nc(-c3ccccc3)cc(-c3ccccc3)c12, the binding response (% of control) was inconclusive: 64.5%.
In the case of Cc1ccc(C(=O)N/C(=C/c2ccc(C(C)C)cc2)C(=O)NCCCN2CCOCC2)cc1, the binding response (% of control) is reported as inconclusive: 104%.
CNc1nc(-c2ccc3c(c2)CCN3C(=O)c2ccccc2C)cs1 was tested, and the binding response (% of control) was inactive: 55.7%.
With O=C(CCCCl)NC(=S)Nc1ccc(N2CCOCC2)cc1 the binding response (% of control) was inconclusive: 128%.
With CCOC(=O)c1ccc(NC(=S)N(CCCN2CCCC(C)C2)Cc2cccs2)cc1 (configuration not stated) the binding response (% of control) was inconclusive: 106%.
With C=CCSC(CC)(CC)C(N)=O the binding response (% of control) was inconclusive: 101%.
For Cc1nc2cc(-c3cccc(F)c3)nn2c(N2CCN(C(=O)c3ccco3)CC2)c1C, the binding response (% of control) was inactive: 101%.
CC(C)(C)OC(=O)NCc1n[nH]c(=S)n1C1CC1 was tested, and the binding response (% of control) was inconclusive: 94.6%.
In the case of C=CCn1c(SCc2ccc(C(=O)O)cc2)nc2sc(C)c(C)c2c1=O, the binding response (% of control) is reported as inconclusive: 132%.
Cc1ccc(C(C)C)c(OCc2nn(CC(=O)c3ccc(Cl)cc3)c3[n+]2CCCCC3)c1 was tested, and the binding response (% of control) was inactive: 99.8%.
For COc1ccccc1COn1c(=O)c(-c2ccco2)[n+]([O-])c2ccccc21, the binding response (% of control) was inconclusive: 99.3%.
For CC(C)c1nc2oc3c(NCCO)ncnc3c2c2c1COC(C)(C)C2, the binding response (% of control) was inconclusive: 109%.
Cc1ccc(C(=O)Cn2nnc(-c3cccs3)n2)cc1 was tested, and the binding response (% of control) was inconclusive: 117%.
CN1CCN(NC(=S)Nc2ccc(OC(F)F)cc2)CC1 was tested, and the binding response (% of control) was inconclusive: 124%.
COCCn1c(C)cc(C2=NNC(=NC(C)(C)C)SC2)c1C was tested, and the binding response (% of control) was inconclusive: 103%.
In the case of CCCCCCN=C1CC(C)(C)CC(=O)/C1=C(/O)CCC, the binding response (% of control) is reported as inconclusive: 171%.
COc1ccc(NC(=O)C2CC(=O)n3c(nc4ccccc43)N2)cc1 (configuration not stated) was tested, and the binding response (% of control) was inconclusive: 86.6%.
In the case of CCCN(CCC)C(=O)Nc1cc(Cl)ccc1OC, the binding response (% of control) is reported as inconclusive: 65%.
CC(C)(C)c1ccc(NC(=S)NCc2cccnc2)cc1 was tested, and the binding response (% of control) was inconclusive: 142%.
CCOC(=O)C(CCCCCCP(=O)(c1ccccc1)c1ccccc1)NC(C)=O (configuration not stated) was tested, and the binding response (% of control) was inconclusive: 107%.
In the case of CC(=O)Oc1cccc(/C=C2\C=C(c3ccc(C)cc3)OC2=O)c1, the binding response (% of control) is reported as inconclusive: 102%.
With Cc1ccc(C)c(OCc2n[nH]c(=S)o2)c1 the binding response (% of control) was inconclusive: 80.6%.
OC1NC(=S)N(c2ccccc2)C1O (configuration not stated) was tested, and the binding response (% of control) was inconclusive: 133%.
With CCn1nnnc1SCC(=O)N1CCN(c2ccccc2)CC1 the binding response (% of control) was inconclusive: 136%.
For CN1CCC(=O)N([C@H](CSc2ccc(Br)cc2)c2ccccc2)CC1, the binding response (% of control) was inconclusive: 91%.
For CC(C)(C)OC(=O)Nc1ncnc2c1ncn2C1OC(CO)C2OC(C)(C)OC21 (configuration not stated), the binding response (% of control) was inconclusive: 244%.
For CCOc1ccccc1C(=O)NC(C(=O)Nc1cccc(S(N)(=O)=O)c1)C(C)C (configuration not stated), the binding response (% of control) was inactive: 100%.
With Cc1c2cnn(-c3ccccc3)c(=O)c2c(C)n1CCCC(=O)NCCN1CCN(C)CC1 the binding response (% of control) was inconclusive: 97.3%.
With COc1ccccc1OCc1ccc(C(=O)OCC2CCCO2)o1 (configuration not stated) the binding response (% of control) was inactive: 99.3%.
With O=C(Nc1ccccc1)C(=O)Nc1cccnc1 the binding response (% of control) was inconclusive: 149%.
Cc1cc(NC(=O)CSc2nnc(NCc3ccccc3)s2)no1 was tested, and the binding response (% of control) was inconclusive: 81.5%.
Cc1ccc(C(=O)N/N=C/c2ccc(-c3cccc(Cl)c3)o2)cn1 was tested, and the binding response (% of control) was inconclusive: 97.9%.
COc1ccccc1CNC(=O)c1cn(C)c2ccc(S(=O)(=O)N3CCCCC3)cc2c1=O was tested, and the binding response (% of control) was inconclusive: 113%.
For Cc1nc(NCCOc2ccccc2)sc1C(=O)Nc1ccccc1, the binding response (% of control) was inconclusive: 100%.
With O=C(COC(=O)c1cc(S(=O)(=O)N2CCc3ccccc3C2)ccc1Cl)NCc1ccco1 the binding response (% of control) was inactive: 95.7%.
For O=C(NCCSCc1ccccc1)c1ccc(C2SCC(=O)N2Cc2ccccc2)cc1 (configuration not stated), the binding response (% of control) was inactive: 107%.
In the case of O=C(c1nn2c(C(F)(F)F)cc(-c3cccs3)nc2c1Br)N1CCCc2ccccc21, the binding response (% of control) is reported as inactive: 103%.
In the case of COc1cc(/C=C/C(=O)O)cc(Br)c1O, the binding response (% of control) is reported as inconclusive: 12.9%.
In the case of Cc1ccc(CN2C(=O)CCC2C(=O)NCCN2CCN(c3cccc(Cl)c3)CC2)cc1 (configuration not stated), the binding response (% of control) is reported as inconclusive: 100%.
In the case of COc1ccc(S(=O)(=O)N2CCCCCC2)cc1N, the binding response (% of control) is reported as inactive: 95.7%.
Cn1c(=O)c2[nH]c(N3CCN(c4ccccc4)CC3)nc2n(C)c1=O was tested, and the binding response (% of control) was inactive: 104%.
For COc1ccc(C)cc1-n1c(SCC(=O)Nc2cccc(C(=O)O)c2)nc2ccccc2c1=O, the binding response (% of control) was inconclusive: 52.6%.
S=C(Nc1ccc(Nc2ccccc2)cc1)NC1CCCCCC1 was tested, and the binding response (% of control) was inconclusive: 93.3%.
